{"sequences": {"note": "Chains of the proteins cited; added tags and fusions are not shown. Lines headed by an entry give the natural chain unless they say otherwise; changes in a name come on top.", "UniProt Q9UBT6": "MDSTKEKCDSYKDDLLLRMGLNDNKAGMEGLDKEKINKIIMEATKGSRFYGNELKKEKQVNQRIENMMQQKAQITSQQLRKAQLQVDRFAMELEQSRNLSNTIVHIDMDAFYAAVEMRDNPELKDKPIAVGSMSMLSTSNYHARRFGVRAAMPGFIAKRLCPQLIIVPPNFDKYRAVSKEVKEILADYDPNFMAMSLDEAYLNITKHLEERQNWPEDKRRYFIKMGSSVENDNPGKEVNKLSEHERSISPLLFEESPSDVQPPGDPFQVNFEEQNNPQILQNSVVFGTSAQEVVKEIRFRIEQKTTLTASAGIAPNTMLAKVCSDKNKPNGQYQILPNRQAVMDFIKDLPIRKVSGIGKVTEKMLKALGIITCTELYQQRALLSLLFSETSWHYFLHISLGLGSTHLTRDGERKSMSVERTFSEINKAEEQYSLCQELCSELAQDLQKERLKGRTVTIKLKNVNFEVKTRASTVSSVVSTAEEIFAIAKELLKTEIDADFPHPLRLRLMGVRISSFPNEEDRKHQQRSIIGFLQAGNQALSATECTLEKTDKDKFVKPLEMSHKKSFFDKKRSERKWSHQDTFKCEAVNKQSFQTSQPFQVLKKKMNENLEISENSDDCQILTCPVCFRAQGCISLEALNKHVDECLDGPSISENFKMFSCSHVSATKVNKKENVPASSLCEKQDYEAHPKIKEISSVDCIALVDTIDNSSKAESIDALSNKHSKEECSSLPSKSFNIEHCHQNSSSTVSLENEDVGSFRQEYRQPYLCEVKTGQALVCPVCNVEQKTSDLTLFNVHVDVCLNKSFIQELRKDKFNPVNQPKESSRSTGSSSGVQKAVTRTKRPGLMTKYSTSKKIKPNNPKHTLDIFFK", "UniProt Q9Y281, whole entry": "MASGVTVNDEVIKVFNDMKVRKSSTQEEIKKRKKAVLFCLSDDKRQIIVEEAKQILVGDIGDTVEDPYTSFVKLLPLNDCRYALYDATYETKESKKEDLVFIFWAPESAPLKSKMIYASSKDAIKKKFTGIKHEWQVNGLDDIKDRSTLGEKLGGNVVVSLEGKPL", "UniProt Q9Y2W1": "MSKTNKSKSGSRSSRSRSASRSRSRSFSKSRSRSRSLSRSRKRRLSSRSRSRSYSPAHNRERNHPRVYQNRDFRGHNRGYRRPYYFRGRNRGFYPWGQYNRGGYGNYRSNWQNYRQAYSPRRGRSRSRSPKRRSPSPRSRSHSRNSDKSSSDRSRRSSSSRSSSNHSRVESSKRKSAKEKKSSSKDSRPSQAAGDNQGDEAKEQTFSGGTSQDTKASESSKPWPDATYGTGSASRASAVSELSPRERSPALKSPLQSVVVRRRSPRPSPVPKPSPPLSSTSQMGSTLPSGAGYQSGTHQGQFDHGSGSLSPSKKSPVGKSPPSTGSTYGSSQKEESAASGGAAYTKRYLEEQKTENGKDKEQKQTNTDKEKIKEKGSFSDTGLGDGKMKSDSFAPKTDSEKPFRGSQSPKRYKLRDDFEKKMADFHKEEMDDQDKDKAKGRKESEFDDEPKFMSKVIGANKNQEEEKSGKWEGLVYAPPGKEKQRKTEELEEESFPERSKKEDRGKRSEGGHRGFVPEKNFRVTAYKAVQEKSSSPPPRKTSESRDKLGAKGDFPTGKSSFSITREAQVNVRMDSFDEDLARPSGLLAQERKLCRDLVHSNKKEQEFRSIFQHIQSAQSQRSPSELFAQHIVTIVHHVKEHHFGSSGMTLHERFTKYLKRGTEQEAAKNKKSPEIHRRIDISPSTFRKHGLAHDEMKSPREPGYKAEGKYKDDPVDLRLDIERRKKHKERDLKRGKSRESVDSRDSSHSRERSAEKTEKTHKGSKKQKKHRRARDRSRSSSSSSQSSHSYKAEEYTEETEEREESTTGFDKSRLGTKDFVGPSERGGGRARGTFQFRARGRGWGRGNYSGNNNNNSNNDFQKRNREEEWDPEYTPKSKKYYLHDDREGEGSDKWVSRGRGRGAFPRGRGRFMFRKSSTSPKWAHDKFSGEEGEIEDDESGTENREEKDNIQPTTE", "UniProt Q9Y244": "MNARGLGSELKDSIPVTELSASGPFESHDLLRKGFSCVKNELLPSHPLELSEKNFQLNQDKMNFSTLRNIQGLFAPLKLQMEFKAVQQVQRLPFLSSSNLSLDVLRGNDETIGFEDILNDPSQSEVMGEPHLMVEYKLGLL", "UniProt Q9UJW0, whole entry": "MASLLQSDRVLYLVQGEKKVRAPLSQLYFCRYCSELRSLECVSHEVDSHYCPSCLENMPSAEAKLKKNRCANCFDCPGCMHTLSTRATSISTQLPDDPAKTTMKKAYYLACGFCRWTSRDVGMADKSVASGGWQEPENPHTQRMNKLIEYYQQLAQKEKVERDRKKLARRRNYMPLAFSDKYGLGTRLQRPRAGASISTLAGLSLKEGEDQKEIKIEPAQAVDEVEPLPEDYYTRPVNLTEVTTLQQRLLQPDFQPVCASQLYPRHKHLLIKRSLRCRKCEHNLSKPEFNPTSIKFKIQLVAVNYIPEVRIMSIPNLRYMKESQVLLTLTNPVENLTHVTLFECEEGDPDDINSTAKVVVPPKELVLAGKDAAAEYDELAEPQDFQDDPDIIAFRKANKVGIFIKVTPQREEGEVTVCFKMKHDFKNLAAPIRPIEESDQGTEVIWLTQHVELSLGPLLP", "UniProt Q9UHW5, whole entry": "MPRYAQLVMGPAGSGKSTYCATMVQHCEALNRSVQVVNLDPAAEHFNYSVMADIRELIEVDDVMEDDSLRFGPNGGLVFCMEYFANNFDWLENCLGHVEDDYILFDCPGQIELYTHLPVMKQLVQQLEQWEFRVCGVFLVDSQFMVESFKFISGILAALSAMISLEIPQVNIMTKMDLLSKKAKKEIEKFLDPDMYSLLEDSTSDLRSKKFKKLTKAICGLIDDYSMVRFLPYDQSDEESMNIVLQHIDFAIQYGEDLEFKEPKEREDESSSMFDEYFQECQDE", "UniProt Q9UJY4": "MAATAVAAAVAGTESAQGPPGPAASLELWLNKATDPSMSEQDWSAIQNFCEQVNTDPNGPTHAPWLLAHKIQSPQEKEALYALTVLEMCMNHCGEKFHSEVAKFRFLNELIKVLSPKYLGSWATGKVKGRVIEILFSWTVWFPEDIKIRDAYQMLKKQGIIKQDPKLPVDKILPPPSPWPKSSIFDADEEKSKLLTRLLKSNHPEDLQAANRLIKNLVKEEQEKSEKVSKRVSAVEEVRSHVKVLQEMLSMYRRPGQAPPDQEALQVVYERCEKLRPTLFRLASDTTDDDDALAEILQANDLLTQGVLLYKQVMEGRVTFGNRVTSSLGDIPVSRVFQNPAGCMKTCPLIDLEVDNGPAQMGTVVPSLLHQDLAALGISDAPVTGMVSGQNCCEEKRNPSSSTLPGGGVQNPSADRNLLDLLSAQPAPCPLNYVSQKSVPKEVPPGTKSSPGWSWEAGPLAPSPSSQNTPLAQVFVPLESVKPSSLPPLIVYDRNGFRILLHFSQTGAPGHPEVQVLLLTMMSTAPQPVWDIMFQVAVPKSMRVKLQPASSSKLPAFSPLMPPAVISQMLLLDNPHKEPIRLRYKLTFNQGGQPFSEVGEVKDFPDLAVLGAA", "UniProt Q9UHH9": "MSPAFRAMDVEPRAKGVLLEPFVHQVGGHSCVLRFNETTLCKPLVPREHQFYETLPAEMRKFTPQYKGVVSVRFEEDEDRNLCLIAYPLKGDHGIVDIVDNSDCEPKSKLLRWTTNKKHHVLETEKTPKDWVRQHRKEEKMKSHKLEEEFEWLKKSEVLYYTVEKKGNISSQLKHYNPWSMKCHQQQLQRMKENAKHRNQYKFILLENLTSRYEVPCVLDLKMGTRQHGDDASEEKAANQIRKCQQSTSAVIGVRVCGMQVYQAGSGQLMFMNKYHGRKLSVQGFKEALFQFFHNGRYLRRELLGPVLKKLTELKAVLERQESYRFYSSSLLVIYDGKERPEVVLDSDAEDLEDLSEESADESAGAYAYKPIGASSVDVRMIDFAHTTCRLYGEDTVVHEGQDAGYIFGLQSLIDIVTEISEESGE", "UniProt Q9UJX6, whole entry": "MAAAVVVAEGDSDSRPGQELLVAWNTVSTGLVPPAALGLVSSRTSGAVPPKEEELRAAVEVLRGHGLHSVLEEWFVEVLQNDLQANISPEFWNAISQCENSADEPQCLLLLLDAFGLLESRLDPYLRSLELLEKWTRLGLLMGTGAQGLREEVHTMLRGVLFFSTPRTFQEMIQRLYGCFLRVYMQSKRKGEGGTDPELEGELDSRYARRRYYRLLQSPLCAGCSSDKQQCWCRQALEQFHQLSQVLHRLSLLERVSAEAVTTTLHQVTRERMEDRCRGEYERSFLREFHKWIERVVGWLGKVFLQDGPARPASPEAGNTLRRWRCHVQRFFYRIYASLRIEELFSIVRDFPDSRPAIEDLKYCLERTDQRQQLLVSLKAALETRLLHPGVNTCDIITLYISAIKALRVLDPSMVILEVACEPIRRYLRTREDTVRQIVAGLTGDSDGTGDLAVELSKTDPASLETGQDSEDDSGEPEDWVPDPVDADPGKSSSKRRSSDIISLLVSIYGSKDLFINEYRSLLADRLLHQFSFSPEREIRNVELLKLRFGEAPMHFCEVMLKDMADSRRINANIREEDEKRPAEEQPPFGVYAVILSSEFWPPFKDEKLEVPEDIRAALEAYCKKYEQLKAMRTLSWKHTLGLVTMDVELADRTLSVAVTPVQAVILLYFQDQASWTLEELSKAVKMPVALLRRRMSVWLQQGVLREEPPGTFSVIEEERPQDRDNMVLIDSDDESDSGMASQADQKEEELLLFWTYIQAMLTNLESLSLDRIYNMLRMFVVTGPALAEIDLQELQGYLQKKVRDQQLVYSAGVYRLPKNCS", "UniProt Q9UHC7": "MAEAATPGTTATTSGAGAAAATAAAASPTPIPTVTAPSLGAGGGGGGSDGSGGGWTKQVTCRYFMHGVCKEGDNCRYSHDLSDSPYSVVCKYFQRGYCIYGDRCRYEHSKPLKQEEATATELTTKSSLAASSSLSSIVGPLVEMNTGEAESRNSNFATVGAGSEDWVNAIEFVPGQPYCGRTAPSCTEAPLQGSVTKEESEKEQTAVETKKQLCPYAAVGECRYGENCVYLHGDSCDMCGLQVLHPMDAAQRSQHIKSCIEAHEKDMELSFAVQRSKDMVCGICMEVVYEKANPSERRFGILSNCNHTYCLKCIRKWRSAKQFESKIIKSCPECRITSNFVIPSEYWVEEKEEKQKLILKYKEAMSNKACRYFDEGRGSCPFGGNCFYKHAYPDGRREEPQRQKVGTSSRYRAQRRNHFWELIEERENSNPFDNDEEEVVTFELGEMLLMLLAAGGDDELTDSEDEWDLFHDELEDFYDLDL", "UniProt Q9UJX2, whole entry": "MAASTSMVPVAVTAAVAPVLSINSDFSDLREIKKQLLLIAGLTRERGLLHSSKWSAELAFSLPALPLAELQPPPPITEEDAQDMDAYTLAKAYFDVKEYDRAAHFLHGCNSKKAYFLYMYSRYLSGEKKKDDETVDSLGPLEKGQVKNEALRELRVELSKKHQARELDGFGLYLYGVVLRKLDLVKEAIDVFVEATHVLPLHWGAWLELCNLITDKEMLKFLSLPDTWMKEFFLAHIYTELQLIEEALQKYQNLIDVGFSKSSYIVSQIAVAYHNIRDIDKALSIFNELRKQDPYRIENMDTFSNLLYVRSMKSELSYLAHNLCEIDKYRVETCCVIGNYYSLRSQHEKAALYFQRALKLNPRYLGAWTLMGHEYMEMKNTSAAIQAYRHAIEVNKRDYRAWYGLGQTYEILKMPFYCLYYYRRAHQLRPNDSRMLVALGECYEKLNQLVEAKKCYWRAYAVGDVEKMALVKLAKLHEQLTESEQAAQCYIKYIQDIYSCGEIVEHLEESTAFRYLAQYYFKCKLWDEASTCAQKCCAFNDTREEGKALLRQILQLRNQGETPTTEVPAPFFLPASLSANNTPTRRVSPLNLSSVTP", "UniProt Q9UKG1": "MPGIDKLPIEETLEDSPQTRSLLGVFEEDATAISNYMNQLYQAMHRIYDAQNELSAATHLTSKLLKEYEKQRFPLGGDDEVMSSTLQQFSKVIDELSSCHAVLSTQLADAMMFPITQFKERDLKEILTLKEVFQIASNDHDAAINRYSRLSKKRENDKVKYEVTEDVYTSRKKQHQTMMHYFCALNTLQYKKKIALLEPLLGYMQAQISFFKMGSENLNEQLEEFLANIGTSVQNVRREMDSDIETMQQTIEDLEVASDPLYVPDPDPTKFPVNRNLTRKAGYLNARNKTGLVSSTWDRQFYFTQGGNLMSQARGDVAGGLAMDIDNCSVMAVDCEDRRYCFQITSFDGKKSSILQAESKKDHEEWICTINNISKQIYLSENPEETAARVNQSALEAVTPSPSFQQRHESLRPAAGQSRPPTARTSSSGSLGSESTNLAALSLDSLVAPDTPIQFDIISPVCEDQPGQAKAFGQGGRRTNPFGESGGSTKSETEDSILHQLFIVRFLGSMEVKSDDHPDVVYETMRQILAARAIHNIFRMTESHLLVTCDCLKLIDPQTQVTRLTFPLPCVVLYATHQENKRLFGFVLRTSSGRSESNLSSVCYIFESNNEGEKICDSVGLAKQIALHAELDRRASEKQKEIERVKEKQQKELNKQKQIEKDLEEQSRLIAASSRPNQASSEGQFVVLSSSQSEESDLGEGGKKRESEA"}, "source": "the supplement of paper PMC6411743", "note": "± gives the standard deviation of the averaged measurements. Only a part is listed here, and it is no random draw. Most entries show no effect beyond the scatter of the controls.", "data": [{"compound": "Nc1ncnc2c1ncn2[C@@H]1O[C@H](COP(=O)(O)OP(=O)(O)NP(=O)(O)O)[C@@H](O)[C@H]1O [adenylyl imidodiphosphate]", "assay": "NP40-soluble protein abundance relative to vehicle (solubility fold change) (ratio); higher = more soluble protein in presence of AMP-PNP", "conditions": "concentration: 0.1mM", "procedure,_shortened": "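Crude Jurkat lysate, prepared by Dounce homogenisation, was exposed to eight concentrations from 0.1 to 10 mM for 10 min at room temperature and then 3 min at 37 °C. Solubilisation used 0.8% NP40 with benzonase for 60 min at 4 °C, followed by ultracentrifugation and TMT labelling of the supernatant for LC-MS/MS. After vsn normalisation of intensities, each value is the fold change against the detergent-processed vehicle within each replicate, across three independent experiments.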", "values": [{"target": "POLK (UniProt Q9UBT6)", "NP40-soluble protein abundance": "1 ± 0.0084"}, {"target": "CFL2 (UniProt Q9Y281)", "NP40-soluble protein abundance": "1.01 ± 0.053"}, {"target": "THRAP3 (UniProt Q9Y2W1)", "NP40-soluble protein abundance": "1.01 ± 0.022"}, {"target": "POMP (UniProt Q9Y244)", "NP40-soluble protein abundance": "1 ± 0.057"}, {"target": "NAGK (UniProt Q9UJ70)", "NP40-soluble protein abundance": "1.03 ± 0.045"}, {"target": "DCTN4 (UniProt Q9UJW0)", "NP40-soluble protein abundance": "0.99 ± 0.023"}, {"target": "NENF (UniProt Q9UMX5)", "NP40-soluble protein abundance": "0.927 ± 0.017"}, {"target": "UFC1 (UniProt Q9Y3C8)", "NP40-soluble protein abundance": "0.996 ± 0.048"}, {"target": "UniProt Q9ULH7-4|Q9ULH7-5|Q9ULH7", "NP40-soluble protein abundance": "0.981 ± 0.017"}, {"target": "UniProt Q9UKT4 and related entries", "NP40-soluble protein abundance": "0.996 ± 0.069"}, {"target": "UniProt Q9UHW5 and related entries", "NP40-soluble protein abundance": "0.992 ± 0.022"}, {"target": "UniProt Q9UJY4 and related entries", "NP40-soluble protein abundance": "0.997 ± 0.019"}, {"target": "UniProt Q9Y2I7", "NP40-soluble protein abundance": "0.982 ± 0.023"}, {"target": "UniProt Q9UHH9", "NP40-soluble protein abundance": "1.02 ± 0.019"}, {"target": "UniProt Q9Y2G2 and related entries", "NP40-soluble protein abundance": "0.958 ± 0.02"}, {"target": "RAB22A (UniProt Q9UL26)", "NP40-soluble protein abundance": "1.01 ± 0.013"}, {"target": "UniProt Q9UJX6 and related entries", "NP40-soluble protein abundance": "1.03 ± 0.044"}, {"target": "UniProt Q9UGR2 and related entries", "NP40-soluble protein abundance": "0.9965 ± 0.0073"}, {"target": "SEL1L (UniProt Q9UBV2)", "NP40-soluble protein abundance": "0.994 ± 0.038"}, {"target": "UniProt Q9ULD0", "NP40-soluble protein abundance": "1.01 ± 0.018"}, {"target": "DBR1 (UniProt Q9UK59)", "NP40-soluble protein abundance": "0.975 ± 0.027"}, {"target": "DDX52 (UniProt Q9Y2R4)", "NP40-soluble protein abundance": "1.05 ± 0.069"}, {"target": "VPS51 (UniProt Q9UID3)", "NP40-soluble protein abundance": "1.02 ± 0.031"}, {"target": "UniProt Q9UHC7 and related entries", "NP40-soluble protein abundance": "1.02 ± 0.038"}, {"target": "CDC23 (UniProt Q9UJX2)", "NP40-soluble protein abundance": "1.03 ± 0.033"}, {"target": "RAB21 (UniProt Q9UL25)", "NP40-soluble protein abundance": "1.01 ± 0.026"}, {"target": "APPL1 (UniProt Q9UKG1)", "NP40-soluble protein abundance": "1.02 ± 0.028"}, {"target": "AMFR (UniProt Q9UKV5)", "NP40-soluble protein abundance": "1.01 ± 0.044"}]}]}
